Results are given in words; binding and its absence hold for the method and conditions named. Binding seen in cells or lysates may run through a third protein. Some entries that bind do so weakly or less than the wild type. For some assays here: Tags and fused reporters may be left off the sequences shown.
How the values were obtained:
[1] = target: T1, NAD-dependent protein deacetylase Sirtuin 2 (SIRT2), endogenous (rat (endogenous in primary cortical neurons)) (UniProt Q5RJQ4); assay: co-IP; lysates of primary cultured neurons in RIPA (weak) buffer, IgG or anti-SIRT2 antibody (2 ug) at 4 °C overnight, protein G plus/protein A agarose 2 h, three washes, blot
T1 sequence: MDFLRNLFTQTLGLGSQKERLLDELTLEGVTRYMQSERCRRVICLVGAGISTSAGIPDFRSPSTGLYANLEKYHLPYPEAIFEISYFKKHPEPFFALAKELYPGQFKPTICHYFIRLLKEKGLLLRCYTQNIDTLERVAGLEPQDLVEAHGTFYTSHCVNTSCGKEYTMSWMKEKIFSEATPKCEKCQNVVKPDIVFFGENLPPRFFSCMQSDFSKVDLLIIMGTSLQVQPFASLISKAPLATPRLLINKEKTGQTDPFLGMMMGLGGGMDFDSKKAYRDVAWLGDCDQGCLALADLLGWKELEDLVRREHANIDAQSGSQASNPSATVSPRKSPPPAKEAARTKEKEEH

[2] = target: T2, GST-SIRT2 (full-length human SIRT2, wild type) (human) (UniProt Q8IXJ6); assay: pull-down; lysates of primary culture neurons incubated with purified GST or GST-SIRT2 for 4 h at 4 °C, GST agarose beads 2 h at 4 °C, five washes, western blot; only the target purified
T2 sequence: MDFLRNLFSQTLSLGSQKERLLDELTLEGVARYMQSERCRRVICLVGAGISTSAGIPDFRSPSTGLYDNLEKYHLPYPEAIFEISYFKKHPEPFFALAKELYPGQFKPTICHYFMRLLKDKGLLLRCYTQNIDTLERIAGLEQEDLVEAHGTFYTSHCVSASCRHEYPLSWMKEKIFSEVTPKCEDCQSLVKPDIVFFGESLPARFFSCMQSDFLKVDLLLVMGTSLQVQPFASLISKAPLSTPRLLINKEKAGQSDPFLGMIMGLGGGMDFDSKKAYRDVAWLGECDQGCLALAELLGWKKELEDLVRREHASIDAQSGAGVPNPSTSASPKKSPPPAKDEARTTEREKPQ

- binding [1]: binds
- binding [2]: binds
Substance: cyclin-dependent kinase 5 (Cdk5), endogenous (from UniProt Q03114 1-292) (enzyme)

Source: PMC9021196
